Results are given in words; binding and its absence hold for the method and conditions named. Binding seen in cells or lysates may run through a third protein. Some entries that bind do so weakly or less than the wild type. Sequences can lack the tags named with a protein.

Common to all, as to test: co-IP
The target of test [1] is T1, HA-DRG2 D257A + D277A (human) (UniProt P55039).
T1 sequence: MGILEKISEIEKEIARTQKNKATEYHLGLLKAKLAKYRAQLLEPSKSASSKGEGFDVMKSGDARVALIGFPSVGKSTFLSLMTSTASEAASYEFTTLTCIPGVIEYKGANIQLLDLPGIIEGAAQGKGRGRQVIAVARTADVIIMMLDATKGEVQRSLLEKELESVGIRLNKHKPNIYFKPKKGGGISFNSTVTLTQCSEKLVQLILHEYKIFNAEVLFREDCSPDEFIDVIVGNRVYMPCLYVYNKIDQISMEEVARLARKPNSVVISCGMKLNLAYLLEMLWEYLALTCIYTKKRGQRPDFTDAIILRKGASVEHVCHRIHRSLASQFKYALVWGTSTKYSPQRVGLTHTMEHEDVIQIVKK

The next test deals with T2, HA-DRG1 V264K (human) (UniProt Q9Y295).
T2 sequence: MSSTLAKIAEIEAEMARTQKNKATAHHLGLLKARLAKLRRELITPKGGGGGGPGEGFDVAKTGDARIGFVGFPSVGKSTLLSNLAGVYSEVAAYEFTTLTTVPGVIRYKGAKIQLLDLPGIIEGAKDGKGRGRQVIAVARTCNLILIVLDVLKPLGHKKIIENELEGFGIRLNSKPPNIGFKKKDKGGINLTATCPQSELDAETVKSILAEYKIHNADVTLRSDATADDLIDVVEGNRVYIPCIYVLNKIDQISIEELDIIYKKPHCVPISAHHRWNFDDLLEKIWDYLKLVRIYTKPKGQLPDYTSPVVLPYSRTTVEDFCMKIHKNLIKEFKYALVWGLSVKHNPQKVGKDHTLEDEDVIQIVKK

The next test addresses T3, HA-DRG1 Y262A (human) (UniProt Q9Y295).
T3 sequence: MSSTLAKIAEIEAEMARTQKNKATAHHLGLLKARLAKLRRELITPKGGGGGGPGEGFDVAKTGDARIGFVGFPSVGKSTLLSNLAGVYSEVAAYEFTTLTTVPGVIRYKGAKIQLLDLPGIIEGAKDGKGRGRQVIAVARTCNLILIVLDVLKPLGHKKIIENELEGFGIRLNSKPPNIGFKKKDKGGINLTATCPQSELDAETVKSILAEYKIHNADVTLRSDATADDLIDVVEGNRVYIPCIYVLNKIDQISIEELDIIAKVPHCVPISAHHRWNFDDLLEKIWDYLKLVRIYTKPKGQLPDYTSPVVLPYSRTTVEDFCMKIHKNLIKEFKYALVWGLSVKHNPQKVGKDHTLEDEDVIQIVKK

The target in the next test is T4, HA-DRG2 R258I (human) (UniProt P55039).
T4 sequence: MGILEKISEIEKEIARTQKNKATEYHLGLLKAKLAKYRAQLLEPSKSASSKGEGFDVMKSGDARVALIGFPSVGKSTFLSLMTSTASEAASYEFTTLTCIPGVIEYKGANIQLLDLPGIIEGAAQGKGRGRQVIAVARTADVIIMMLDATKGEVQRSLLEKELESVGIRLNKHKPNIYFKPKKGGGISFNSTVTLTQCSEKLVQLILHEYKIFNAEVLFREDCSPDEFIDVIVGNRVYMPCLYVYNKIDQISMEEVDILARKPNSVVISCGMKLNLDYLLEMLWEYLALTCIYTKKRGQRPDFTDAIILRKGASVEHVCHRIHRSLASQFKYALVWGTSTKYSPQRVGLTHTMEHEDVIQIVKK

The target of the next test is T5, HA-DRG2 A260Y (human) (UniProt P55039).
T5 sequence: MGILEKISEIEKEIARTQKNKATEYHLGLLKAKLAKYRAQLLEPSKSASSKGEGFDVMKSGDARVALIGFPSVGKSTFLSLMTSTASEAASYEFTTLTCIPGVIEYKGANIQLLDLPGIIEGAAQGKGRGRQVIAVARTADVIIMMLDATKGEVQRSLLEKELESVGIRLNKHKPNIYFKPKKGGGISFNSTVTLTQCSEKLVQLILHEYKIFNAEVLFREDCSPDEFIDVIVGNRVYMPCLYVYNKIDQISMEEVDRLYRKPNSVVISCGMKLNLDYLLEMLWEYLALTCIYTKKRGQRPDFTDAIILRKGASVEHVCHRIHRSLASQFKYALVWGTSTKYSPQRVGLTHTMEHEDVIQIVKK

B1: DRG family regulatory protein 2 (DFRP2), endogenous (protein, UniProt Q9H446 1-243)
chain: MTDYGEEQRNELEALESIYPDSFTVLSENPPSFTITVTSEAGENDETVQTTLKFTYSEKYPDEAPLYEIFSQENLEDNDVSDILKLLALQAEENLGMVMIFTLVTAVQEKLNEIVDQIKTRREEEKKQKEKEAEEAEKQLFHGTPVTIENFLNWKAKFDAELLEIKKKRMKEEEQAGKNKLSGKQLFETDHNLDTSDIQFLEDAGNNVEVDESLFQEMDDLELEDDEDDPDYNPADPESDSAD
As to B1, the binding entry is given as “binds” in test [1]; “no binding” with HA-DRG1 V264K (human); “binds” with HA-DRG1 Y262A (human); “binds” in the test with HA-DRG2 R258I (human); “no binding” in the test with HA-DRG2 A260Y (human).
